These are literature values, as cited in patent US20220235073A1, “ARTEMISININ-DERIVATIVE N-HETEROCYCLIC CARBENE GOLD(I) HYBRID COMPLEXES” (CENTRE NATIONAL DE LA RECHERCHE SCIENTIFIQUE, priority 2019, published 2022).

In general, IC50 refers to the concentration that inhibits the measured activity by half.

Each structure is given as a SMILES string.

This data set has as its system HepG-2 cell line. The conditions noted are these: literature value (BMC Cancer 2012, 12, 402); cited from earlier work.

In the case of `CNC(=O)c1cc(Oc2ccc(NC(=O)Nc3ccc(Cl)c(C(F)(F)F)c3)cc2)ccn1` [Sorafenib], the IC50 was 6.4 µM.
